Data: article PMC8200006
Results are given in words; binding and its absence hold for the method and conditions named. A result given as binding can be weak or reduced; the word gives no strength.

Assays:
[1] = target: T1, Recombinant Human SRI (sorcin), soluble resistance-related calcium-binding protein (human) (UniProt P30626); experiment: intrinsic fluorescence (quenching on mixing); excitation at 280 nm, fluorescence values at 310 nm; spectra of the single proteins and of the premixed pairs, premixed value compared with the sum of the single values; method in the supplement; both purified
T1 sequence: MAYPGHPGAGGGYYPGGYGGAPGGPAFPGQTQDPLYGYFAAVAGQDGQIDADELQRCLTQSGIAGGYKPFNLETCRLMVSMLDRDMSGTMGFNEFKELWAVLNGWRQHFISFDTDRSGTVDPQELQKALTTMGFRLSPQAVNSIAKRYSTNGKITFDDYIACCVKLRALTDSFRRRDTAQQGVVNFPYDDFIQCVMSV

[2] = target: T1, Recombinant Human SRI (sorcin), soluble resistance-related calcium-binding protein (human); experiment: far-Western, overlay or dot blot; sorcin (1 µg) run on 10% SDS-PAGE and transferred to PVDF, blocked with 5% low-fat milk in PBS-1% Tween 20, incubated for 3 h at 37 °C with 0.5 µg PMCA in PBS-T, washed, bound PMCA detected with the anti-PMCA antibody 5F10; both purified

binding [1]: binds | binding [2]: binds
Substance: purified pig brain plasma membrane Ca2+-ATPase (PMCA)
